Data from patent publication US20100233093A1, “Magnetic resonance imaging contrast agent with paramagnetic-inositol phosphates complexes” (GACHON UNIVERSITY OF MEDICINE & SCIENCE INDUSTRY-ACADEMIC …, priority 2009, published 2010).

Legend:
[1] = ITC analysis of Gd^3+ binding to DTPA; details: 298 K; for n1 (number of Gd^3+ bound per mole) / ΔS1: site I; for n2 (number of Gd^3+ bound per mole) / ΔS2: site II
[2] = ITC analysis of Gd^3+ binding to inositol phosphates; details: 10 mM HEPES pH 7.0, 298 K; for n1 (number of Gd^3+ bound per molecule): site I
[3] = ITC analysis of Ca^2+ binding to phytate; details: 310 K; for n1 (number of ions bound per phytate molecule): site I; for n2 (number of ions bound per phytate molecule): sites II&III

SMILES: O=C(O)CN(CCN(CC(=O)O)CC(=O)O)CCN(CC(=O)O)CC(=O)O [DTPA, diethylene triamine pentaacetic acid]
- n1 (number of Gd^3+ bound per mole) ([1]; pH 4.8, 10 mM sodium acetate): 0.68
- ΔS1 ([1]; pH 4.8, 10 mM sodium acetate): 35.6 cal/mol/deg^−1
- n1 (number of Gd^3+ bound per mole) ([1]; pH 7.8): 0.7
- ΔS1 ([1]; pH 7.8): 22.2 cal/mol/deg^−1
- n2 (number of Gd^3+ bound per mole) ([1]; pH 4.8, 10 mM sodium acetate): 0.32
- ΔS2 ([1]; pH 4.8, 10 mM sodium acetate): 88.4 cal/mol/deg^−1
- n2 (number of Gd^3+ bound per mole) ([1]; pH 7.8): 0.9
- ΔS2 ([1]; pH 7.8): 39.4 cal/mol/deg^−1

SMILES: O=P(O)(O)O[C@H]1[C@H](O)[C@@H](O)[C@H](OP(=O)(O)O)[C@@H](OP(=O)(O)O)[C@H]1O [Inositol 1,3,4-tisphosphate, d-myo-inositol-1,3,4-trisphosphate]
- n1 (number of Gd^3+ bound per molecule) [2]: 1.71

SMILES: O=P(O)(O)OC1[C@H](O)[C@H](OP(=O)(O)O)C(OP(=O)(O)O)[C@H](OP(=O)(O)O)[C@H]1O (stereo partly drawn) [Inositol-1,3,4,5-tetraphosphate, d-myo-inositol-1,3,4,5-tetrakisphosphate]
- n1 (number of Gd^3+ bound per molecule) [2]: 1.97
- n2 (number of Gd^3+ bound per molecule) ([2]; site II): 0.11

SMILES: O=P(O)(O)O[C@@H]1[C@H](O)[C@H](O)[C@@H](OP(=O)(O)O)[C@H](OP(=O)(O)O)[C@H]1O [Inositol-1,4,5-tisphosphate, d-myo-inositol-1,4,5-trisphosphate]
- n1 (number of Gd^3+ bound per molecule) [2]: 1.28

SMILES: O=P(O)(O)OC1C(OP(=O)(O)O)C(OP(=O)(O)O)C(OP(=O)(O)O)C(OP(=O)(O)O)C1OP(=O)(O)O (stereo not drawn) [phytate]
- n1 (number of ions bound per phytate molecule) ([3]; pH 2): 0.80
- n1 (number of ions bound per phytate molecule) ([3]; pH 3): 0.72
- n1 (number of ions bound per phytate molecule) ([3]; pH 4): 0.89
- n1 (number of ions bound per phytate molecule) ([3]; pH 5): 1.18
- n1 (number of ions bound per phytate molecule) ([3]; pH 6): 1.27
- n1 (number of ions bound per phytate molecule) ([3]; pH 7): 0.54
- n1 (number of ions bound per phytate molecule) ([3]; pH 8): 0.1
- n1 (number of ions bound per phytate molecule) ([3]; pH 9): 0.45
- n2 (number of ions bound per phytate molecule) ([3]; pH 3): 2.73
- n2 (number of ions bound per phytate molecule) ([3]; pH 4): 3.11
- n2 (number of ions bound per phytate molecule) ([3]; pH 5): 4.24
- n2 (number of ions bound per phytate molecule) ([3]; pH 6): 2.01
- n2 (number of ions bound per phytate molecule) ([3]; pH 7): 1.84
- n2 (number of ions bound per phytate molecule) ([3]; pH 8): 2.52
- n2 (number of ions bound per phytate molecule) ([3]; pH 9): 2.77
